Values quoted from earlier work in patent US11273077B2, “Wound packing material comprising chemoeffector” (priority 2015, dated 2022).
At least one compound was matched to its structure with a doubt left.

System: Enterobacteria

For `N[C@@H](CC(=O)O)C(=O)O` [L-aspartate], the chemoattractant concentration is given as “around 5 μM” and the “ligand specificity as chemoattractant” value is given as “high ligand specificity”.
